In the supplement of paper PMC3334620:
Over roughly 33,000 sequences, “E-score (-0.5 to 0.5)” has its median near -0.0059; the highest 2% begin near 0.26. Some of the results follow.

Target: T1, Cin5 (UniProt P40917)
T1 sequence: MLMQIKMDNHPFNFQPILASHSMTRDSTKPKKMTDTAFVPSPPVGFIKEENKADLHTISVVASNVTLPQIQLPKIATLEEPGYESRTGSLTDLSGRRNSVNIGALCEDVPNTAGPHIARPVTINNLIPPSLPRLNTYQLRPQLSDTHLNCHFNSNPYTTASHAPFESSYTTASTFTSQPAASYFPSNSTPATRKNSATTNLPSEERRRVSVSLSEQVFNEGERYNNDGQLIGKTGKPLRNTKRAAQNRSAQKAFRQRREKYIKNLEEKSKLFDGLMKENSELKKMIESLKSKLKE
Test: PBM E-score (8-mer binding enrichment) (E-score (-0.5 to 0.5)); higher = stronger / more preferred TF binding
Settings: protein concentration: 100 nM; construct: GST-full length
Procedure: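 Universal 'all 10-mer' protein binding microarrays (Agilent AMADID 015681) probed with GST-tagged S. cerevisiae TFs (full-length or DBD) made by in vitro transcription/translation (PURExpress), about 100-200 nM. Bound TF was detected with fluorescent anti-GST. Each ungapped 8-mer (which stands for itself and its reverse complement) is scored by the PBM enrichment score (E-score), a modified Wilcoxon-Mann-Whitney statistic from -0.5 to +0.5, computed with the Universal PBM Analysis Suite. Scale: above 0.35 generally sequence-specific binding.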

Sequence	PBM E-score
GCTTACCC	0.00966
AAGTATGC	-0.0503
ATATTTCG	0.242
CAACTCCG	-0.0459
AGCTAAGC	0.116
AACGTAGA	0.0698
CTCTTGCC	-0.143
ATCCGCAA	0.0144
AAAGCTCC	-0.131
AACACTCC	0.136
AACGGGTG	0.0993
ACCCGCTG	-0.114
CCCCGGCG	-0.256
CTCCGACC	-0.274
GAATGAAA	0.0982
CTTATAAG	-0.0612
CGGTGTCA	-0.17
ACTAGATG	-0.00897
CCTGCCAC	-0.0959
TCCGACAA	-0.0569
CTTTTCGC	0.0357
TCAAAACA	0.151
AATTTGTC	0.114
ATGCTCTA	-0.161
CGGGTGAG	-0.099

Sequence	PBM E-score
TATAAGAA	0.173
AGGTGCCG	-0.0281
GCCGAAGC	-0.165
CCGTAGAG	-0.26
ATGCCCAG	-0.161
CGCTAAAC	-0.16
CAGTAAGC	0.253
CGGGCATC	-0.28
CGGAAGTA	0.0445
GATAATAA	0.199
CCCCACCG	-0.0344
GATATTGC	0.132
AATGAGCA	0.0395
AGCCCCAG	-0.0735
GCGAAGAC	-0.146
CGTTCTTC	0.0221
GAAAACCC	0.0584
GTTCACCA	-0.0455
AATTCATC	0.0433
ATTCAAAC	0.0264
ACGGGAGA	-0.193
ACAGGTTA	-0.00071
CCCAACCA	0.0428
AGTAGTCG	-0.0294
TATGCTCA	0.132

Sequence	PBM E-score
ATGTCCAA	0.0429
TGCGTAAA	0.0908
CCTTGCAA	-0.163
GCTGTGAA	-0.00138
ATAGTTGG	-0.0107
AGTCCGAA	-0.103
GTGACGAA	0.0209
ACCGGGAC	-0.0537
CCCAAGGG	-0.307
AATAAGAG	0.146
AGGAGTAC	-0.164
AATTTTAT	0.228
CACCATTC	-0.0149
ACCAATGA	0.128
ACCATGCT	-0.0805
CAAGTTTC	0.0858
CTAGCTGC	-0.232
GCACTAGC	-0.125
CCGCCCTC	-0.0884
GACCAATA	0.0508
AGTGCCAT	-0.131
GGCTGCTA	-0.14
CCGTCGGA	-0.109
AGAGCAGC	-0.149
TCCATTCA	0.0889

Sequence	PBM E-score
CAACTCGG	0.059
GACTGACC	-0.307
ACCCACAA	0.185
AGCGGTCG	-0.291
ATGTTCTA	-0.0021
AAACTTGC	0.185
ACCTCCCA	-0.323
ATACGTCA	0.0869
ATCGGCCA	-0.105
ACCAGCCA	-0.114
CACGTACC	-0.0572
CGTGTCAC	-0.0988
GACGACGC	-0.118
AAGGCATT	-0.0905
CCTTATTA	0.254
AAAGGTGT	-0.0556
CAGGACTC	-0.136
AATTGACT	0.121
CCCCAGAG	-0.211
ACCCACTC	-0.00905
ATCGTCTC	-0.0356
ACTACTAC	0.00444
TGCATGCA	0.102
AGCTCGTA	-0.0127
CTTGTACC	0.00352

A stretch of the results above:
Sequence	PBM E-score
ACCCACAA	0.185
AGCGGTCG	-0.291
ATGTTCTA	-0.0021
AAACTTGC	0.185
ACCTCCCA	-0.323
ATACGTCA	0.0869
ATCGGCCA	-0.105

(listing goes on)

Sequence	PBM E-score
GCTTTCCC	-0.0623
CGGGTGTA	0.0316
TACAGCGA	-0.0916
ATTCAATG	0.141
AAATGGCT	0.109
AAGGTTAC	-0.028
GCCCGGCA	-0.234
ATGGGAGG	0.0204
CTCAACGA	-0.117
ATGACGCA	0.195
CGTGGCAC	-0.18
CCCAGCTC	-0.128
GAATCCTC	-0.19
CAGAGTCC	0.0247
CCCTAGCC	-0.0423
CTTTAGGC	-0.19
ACGTACAA	0.0354
AAGGTCGG	-0.093
AATAAGTG	0.0171
AGCTTCTA	-0.179
ACACATCT	0.0506
CCCACTAA	0.133
CTATTACC	-0.0809
ACGGGTAC	-0.139
AAGTAGAG	-0.126

Sequence	PBM E-score
GGGCTGAC	0.171
TAAAATGA	0.149
CCAGTGGC	-0.172
ACCGACTC	0.0464
CGTTCGAC	-0.14
TACCAGAA	0.21
AGAAATGA	0.0538
ATGACCCC	-0.0535
CTATGTGA	0.00689
CGAACATA	0.21
AGAACACA	0.0401
AGGTTAGC	-0.199
CAGTCAAG	0.0003
GCACCTAC	-0.243
TAGACCAA	0.138
GGATCCCA	-0.0297
TCAATGAA	0.159
AGACATAG	0.102
AGCGGCTA	-0.0605
ATTGCGCC	0.00682
CCGCTGAG	0.0353
GGGGGGAC	-0.458
ACTTGGAC	0.134
ACCTTCTC	0.0155
ACCTGCCG	-0.128

Rewritten field by field: entries from further up.
CCGCTGAG
  PBM E-score: 0.0353
GGGGGGAC
  PBM E-score: -0.458
ACTTGGAC
  PBM E-score: 0.134
ACCTTCTC
  PBM E-score: 0.0155

The listing continues.

Sequence	PBM E-score
CAGTGATG	-0.00135
AAAAAATC	0.102
GTCAGGCA	-0.0711
ACAAAGAG	-0.0853
CAGTCGGC	-0.242
ATCTACGG	0.0548
CGGATACG	-0.0818
CGCGGCAA	0.00803
CCTCGTAG	-0.054
GTACTTGA	-0.0618
ACTACATG	0.0894
ATTTCATA	0.223
AGTTCGTG	-0.0336
CGTTGCTA	0.18
CGTGTTGA	-0.0277
CTTAACGA	0.0185
AGCTATCG	-0.0505
AGCTCACT	-0.00134
CCAGCCAA	-0.0854
TACCGTGA	-0.0612
GAGACGGA	0.0388
CTTACATC	0.213
